From PMC5382891 (Scientific Reports, 2017) come the findings set out here.

By UniProt entry, the sequences of proteins in these tests, tags left out. Where a name states a change or a piece, a line headed by the entry shows the natural chain unless it says otherwise.
UniProt Q13519: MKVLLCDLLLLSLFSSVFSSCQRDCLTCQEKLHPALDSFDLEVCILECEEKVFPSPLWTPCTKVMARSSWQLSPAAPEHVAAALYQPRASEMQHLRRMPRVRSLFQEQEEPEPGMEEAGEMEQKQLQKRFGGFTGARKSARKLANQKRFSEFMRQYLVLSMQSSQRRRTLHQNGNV

This data set in a line: peptide synthesis. The settings on record: whole synthesis, 220 nm.

As for “N/OFQ(1-11)-NH2 (FGGFTGARKSA; Nociceptin C-terminal amide; UniProt Q13519 130-140, looked up, fragment)”, the “final HPLC purity” value is recorded as over 99.9%.
